## Percent effect of library compounds

By UniProt entry, the sequences of proteins in these tests, tags left out.
UniProt P9WPC5, whole entry: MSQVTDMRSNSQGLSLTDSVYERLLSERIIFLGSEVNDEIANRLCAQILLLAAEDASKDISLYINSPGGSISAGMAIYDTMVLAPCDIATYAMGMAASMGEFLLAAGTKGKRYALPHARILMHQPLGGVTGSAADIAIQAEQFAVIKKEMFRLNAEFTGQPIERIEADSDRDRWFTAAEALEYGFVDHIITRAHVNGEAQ
UniProt P9WPC3, whole entry partner: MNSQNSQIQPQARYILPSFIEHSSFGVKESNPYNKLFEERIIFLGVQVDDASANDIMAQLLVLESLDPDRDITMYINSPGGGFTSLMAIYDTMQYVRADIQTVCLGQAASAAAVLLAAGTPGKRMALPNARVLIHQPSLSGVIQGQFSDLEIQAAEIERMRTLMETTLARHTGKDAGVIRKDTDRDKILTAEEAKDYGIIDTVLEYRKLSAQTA

The values are deposited in ChEMBL (CHEMBL3988442, “University of Dundee, Small-Polar-MMV Screening Library” (2021)).

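ClpP1P2, Mycobacterium tuberculosis (UniProt P9WPC5 and UniProt P9WPC3). Protease assay of ClpP1P2, read by the AMC dye that it sets free. Compounds at 50 µM. Direction is inferred from only a few compounds that gave an IC50; most scored high, so higher reads as stronger inhibition. Most other retested compounds had strongly negative values. About 69,000 compounds were tested under these conditions; 0.015% (about 10) showed 50% or more at least once.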

The filed quantity is “Percent Effect” (%). The controls that fix the scale are not given in the record; negative values are as filed. This is an unselected part of the compounds tested.

CCOC1COC2(CCN(Cc3ccc(F)cc3)CC2)C1 (centres undefined) gave -1.071%. For CC1CCCN(C(=O)CCc2cccnc2)C1 (centres undefined) the result was 0.7258%. CCCN1CCC=C(C2c3nc[nH]c3CCN2C(=O)c2ccco2)C1 (centres undefined) gave -7.952%. For CCCC(=O)Nc1cc2c(cc1OC)NC(=O)CC2c1ccc(CC)o1 (centres undefined) the result was 10.54%. With Cn1ccc(C(=O)NCc2ccc(N3CCCCC3)nc2)cc1=O the screen gave -34.2%. For Cc1nc(C)n(CC2CCCN(CC(=O)NC3CCOCC3)C2)n1 (centres undefined) the result was -8.474%. With Cc1nc(C)n(CC2CCCN2CC(=O)NCCC#N)n1 (centres undefined) the screen gave -5.926%. CCCn1ccc2ccc(NC(=O)N(C)CCOC)cc21 gave -10.04%.

For COc1ccc(CC(=O)N2C[C@@H]3COC[C@]3(CN(C)C)C2)cc1 the result was -1.61%. With CC(C)c1noc(CN2CCN(C(=O)c3ccc(F)cc3)CC2)n1 the screen gave 0.4197%. CCn1cc(CN2CCN(C(=O)N3CCOCC3)CC2)cn1 read 6.248%. Result for CS(=O)(=O)N1CCCC12CCCN(S(=O)(=O)c1cccc(F)c1)C2 (centres undefined) was 2.031%. With CCN1CCN(C(=O)CCc2c(C)noc2Cl)CC1 the screen gave -4.8%. CN(Cc1cc(F)ccc1C#N)CC(C)(CO)CO gave 1.144%. Cc1nc(CN2CCC23CCN(C(=O)c2ccncc2)CC3)cs1 read 0.5822%. With CNc1nc(CNC(=O)Nc2cccc(Cl)c2OC)cs1 the screen gave -18.07%.

With O=C(NCC1CC1)[C@@H]1CCO[C@@H]2CCN(CCc3ccccc3)C[C@H]21 the screen gave -6.701%. Result for O=C(CCCN1CCCCC1)N[C@H](C(=O)O)c1cccc(F)c1F was -21.93%. With CN(Cc1nnc(C2CC2)n1C)C1CCN(CCc2ccccc2)C1 (centres undefined) the screen gave -19.74%. With O=C(NC[C@H]1C[C@@H]2CCN1C[C@@H]2CN1CCOCC1)Nc1ccsc1 the screen gave -9.659%. Cc1nc(CNc2ncc(Br)cn2)n[nH]1 read -9.652%. With CCc1nc2n(n1)CC(NCC1=Cc3ccc(OC)cc3OC1)CC2 (centres undefined) the screen gave -12.29%. For O=c1oc2ccccc2n1CCN(CC1CCOC1)C1CC1 (centres undefined) the result was -4.421%. CN1CCCC(CCC(=O)N2CCc3onc(C(=O)N(C)C)c3C2)C1 (centres undefined) gave -5.655%.

CN(C)c1ncc2c(n1)CN(C1CCSCC1)C2=O read 5.435%. CC(=O)N1CCC(c2cncc(N3CCCC(O)C3)n2)CC1 (centres undefined) read -4.579%. O=C(c1cc(C2CC2)[nH]n1)N1CCN(Cc2ccsc2)CC1 gave -3.153%. Cn1cc(Br)c(C(=O)NCCCn2cc(Cl)cn2)n1 gave -14.22%. For Cc1ccccc1C1(CNc2nnc(C)c(C)c2C#N)CCOCC1 the result was -0.7925%. Cc1noc(C)c1CN1CCCC2(C1)CN(c1nccs1)CCO2 (centres undefined) read 0.7429%. CCc1c(O)n(C(C)CC)c(SCC(=O)c2ccccc2)nc1=O (centres undefined) gave -3.406%. Result for CN(C)c1ccc(C(=O)N2CCCC2c2ccc(Cl)cc2)cc1 (centres undefined) was 10.25%.

CCOC(=O)C1(Cc2cccc(OC)c2)CCN(Cc2ncc[nH]2)CC1 read -51.52%. With CCS(=O)(=O)CC(=O)Nc1c(C)cnn1Cc1cc(F)ccc1F the screen gave -9.42%. Result for COc1ccc2c(ccn2CCC(=O)N[C@H](C(=O)O)C(C)C)c1 was -13.45%. Cc1ccsc1CN(C)Cc1ncccc1C(=O)O gave -1.734%. O=C(Cc1ccsc1)N1C[C@H]2CCC[C@@]2(COCc2ccccn2)C1 gave 11.05%. CCOCC1c2c(cnn2CC2CC2)CCN1Cc1nccs1 (centres undefined) read -25.84%. For N#Cc1cccc(CNC(=O)C2=NN(c3ccccc3)C(=O)CN2)c1 the result was 6.431%. CCc1cc(N[C@H](C(N)=O)C(C)C)n2nc(C)c(C)c2n1 gave -14.48%.

O[C@@]1(c2ccccn2)CC[C@H]2CN(Cc3ccccn3)C[C@H]21 gave -9.974%. Result for CC(=O)Nc1cnc(-n2ccnc2)nc1 was -5.827%. With Cc1noc(C)c1CCC(=O)N1CCOCC1CC(=O)N1CCCC1 (centres undefined) the screen gave -5.359%. O=C(c1nn[nH]c1Nc1ccc(Cl)cc1)N1CCSCC1 gave -7.692%. Result for CCn1nc(C)c(CNC(=O)NCC(C)(O)c2ccc(C)o2)c1C (centres undefined) was -5.744%. For COC(=O)c1ccn(CC(=O)Nc2nn(CC3CC3)c3ccccc23)n1 the result was -4.399%. Result for CS(=O)(=O)N1Cc2ccccc2CC2(CCN(Cc3ccncc3)C2)C1 (centres undefined) was -4.583%. CC(C)S(=O)(=O)CCN1CCN(C(C#N)c2ccccc2)CC1 (centres undefined) gave -5.033%.

For CN1CCN(C(=O)c2n[nH]c3c2CN(C2CCOCC2)CC3)CC1 the result was -1.689%. With Cc1ccc(-c2ccc(C(=O)NCC(N)=O)c(F)c2)cc1 the screen gave -8.019%. CC(C)(C)c1ccc(OCc2nc3c(c(=O)[nH]2)CCNC3)cc1 read 24.4%. With O=C(C1CC(=O)N(c2n[nH]c3cc(Br)ccc23)C1)N1CCCC1 (centres undefined) the screen gave -3.289%. CCOc1ncccc1CNC(=O)Nc1ccccc1 gave 3.632%. CCOC(=O)CC(c1ccc(OC)cc1)c1c(O)n[nH]c1C (centres undefined) gave 0.5918%. For CCCn1ccnc1CN1CCC(Oc2cccc(F)c2)(C(=O)O)CC1 the result was -12.81%. Result for Cc1cnn(C2CN(Cc3nnc(C4CC4)o3)C2)c1 was 7.205%.

With O=c1[nH]c(N2CC(O)C2)nc2c1cnn2-c1ccccc1 the screen gave -0.08456%. With Cc1ccc(S(N)(=O)=O)cc1C(=O)NC1CCN(C2CC2)CC1 the screen gave -1.84%.

Some entries from above, unchanged:

Compound,percent effect
CCCn1ccc2ccc(NC(=O)N(C)CCOC)cc21,-10.04
O=c1oc2ccccc2n1CCN(CC1CCOC1)C1CC1 (centres undefined),-4.421
CCCn1ccnc1CN1CCC(Oc2cccc(F)c2)(C(=O)O)CC1,-12.81
COc1ccc2c(ccn2CCC(=O)N[C@H](C(=O)O)C(C)C)c1,-13.45
O[C@@]1(c2ccccn2)CC[C@H]2CN(Cc3ccccn3)C[C@H]21,-9.974
CN(Cc1nnc(C2CC2)n1C)C1CCN(CCc2ccccc2)C1 (centres undefined),-19.74